This passage reports survivor count and T/C results from PubChem BioAssay AID198 (DTP/NCI, 2004).

The list shows only some results of the screen, not a fair sample: it gathers tests that were run many times, whatever their T/C, doses with no T/C, and many T/C values between a quarter and a half above the control. Further doses and runs are listed elsewhere. T/C is the treated group as % of the vehicle group. Some entries give survivors of the animals treated and no T/C: the source holds a T/C of zero for them, seemingly a mark for toxic or unscored doses. Some doses without a T/C left all or most animals alive at the check, yet need not have been tolerated: the source hardly ever lists a survival T/C far under the control, and the zero likely stands for such cases as well. Counts of survivors are from the toxicity check (mostly the fifth day) where no day follows; animals may have died later. Schedule codes are those of the source, taken here to give the interval after Q, in days (D) or hours (H), and the number of doses after X. Some entries were tested several times; the values are given in rising order. Where survival is the endpoint, this PubChem deposit counts one and a half times the control or more as active, and values a quarter to a half above the control carry no call in these data; other NCI protocols may use other cut-offs. Some T/C values carry the count of animals alive at the toxicity check (mostly the fifth day); without a count, all were alive then.

The assay has as its system B16 melanoma ip, C57BL/6 mice, median survival T/C. The assay can be described thus: NCI In Vivo Anticancer Drug Screen. Data for tumor model B16 Melanoma (intraperitoneal) in C57BL/6 mice. As to conditions: T/C endpoint: median survival time, higher T/C = longer survival. How it is done: The antitumor activity of compounds was measured in mice bearing transplantable tumors. Survival or tumor size were measured and the results are expressed as the measurement made in the treated group (T) divided by the measurement made in the vehicle treated control group (C). The tumor model used in this assay is B16 Melanoma (intraperitoneal) in C57BL/6 mice

[1] abbreviates: dose: 25.0 mg/kg/injection, schedule: Q01DX009 (ip), vehicle: saline.
Where [2] appears, read: dose: 50.0 mg/kg/injection, schedule: Q01DX009 (ip), vehicle: saline.
The mark [3] stands for this setting: dose: 100.0 mg/kg/injection, schedule: Q01DX009 (ip), vehicle: saline.
Where [4] appears, read: dose: 200.0 mg/kg/injection, schedule: Q01DX009 (ip), vehicle: saline.
The mark [5] stands for this setting: dose: 400.0 mg/kg/injection, schedule: Q01DX009 (ip), vehicle: saline.
The mark [6] stands for this setting: dose: 12.5 mg/kg/injection, schedule: Q01DX009 (ip), vehicle: saline.
Setting [7] is: dose: 100.0 mg/kg/injection, schedule: Q01DX009 (ip), vehicle: saline with Tween-80.
The mark [8] stands for this setting: dose: 200.0 mg/kg/injection, schedule: Q01DX009 (ip), vehicle: saline with Tween-80.
[9] abbreviates: dose: 0.13 mg/kg/injection, schedule: Q01DX009 (ip), vehicle: saline.
[10] abbreviates: dose: 0.25 mg/kg/injection, schedule: Q01DX009 (ip), vehicle: saline.
Setting [11] is: dose: 0.5 mg/kg/injection, schedule: Q01DX009 (ip), vehicle: saline.
The mark [12] stands for this setting: dose: 6.25 mg/kg/injection, schedule: Q01DX009 (ip), vehicle: saline.
[13] abbreviates: dose: 3.13 mg/kg/injection, schedule: Q01DX009 (ip), vehicle: saline with Tween-80.
Where [14] appears, read: dose: 6.25 mg/kg/injection, schedule: Q01DX009 (ip), vehicle: saline with Tween-80.
[15] abbreviates: dose: 12.5 mg/kg/injection, schedule: Q01DX009 (ip), vehicle: saline with Tween-80.
[16] abbreviates: dose: 25.0 mg/kg/injection, schedule: Q01DX009 (ip), vehicle: saline with Tween-80.
Where [17] appears, read: dose: 30.0 mg/kg/injection, schedule: Q01DX009 (ip), vehicle: saline.
Where [18] appears, read: dose: 1.0 mg/kg/injection, schedule: Q01DX009 (ip), vehicle: saline.

As for `CC(=O)OC(C)(C)/C=C/C(=O)[C@](C)(O)[C@H]1[C@H](O)C[C@@]2(C)[C@@H]3CC=C4[C@@H](C[C@H](O)C(=O)C4(C)C)[C@]3(C)C(=O)C[C@]12C`, the survivor count (dose: 2.0 mg/kg/injection, schedule: Q01DX009 (ip), vehicle: saline with Tween-80) is 1 of 6 and the survivor count (dose: 4.0 mg/kg/injection, schedule: Q01DX009 (ip), vehicle: saline with Tween-80) was 0 of 6.

Consider `Cn1c(=O)c2ncnnc2n(C)c1=O`, for which the survivor count under setting [1] is given as 5 of 6; the survivor count under setting [2] was 0 of 6 and 2 of 6; the survivor count under setting [3] is on record as 0 of 6; the survivor count under setting [4] is on record as 0 of 6; the survivor count under setting [5] is recorded as 0 of 6.

In the case of `CO[C@H]1/C=C/O[C@@]2(C)Oc3c(C)c(O)c4c(O)c(c(/C=N/N5CCN(C)CC5)c(O)c4c3C2=O)NC(=O)/C(C)=C\C=C\[C@H](C)[C@H](O)[C@@H](C)[C@@H](O)[C@@H](C)[C@H](OC(C)=O)[C@@H]1C`, the survivor count under setting [5] is listed as 5 of 6.

For the compound `CN1Cc2c(ccc3c2OCO3)[C@@H]2[C@H](O)Cc3cc4c(cc3[C@@H]21)OCO4`, the survivor count (dose: 500.0 mg/kg/injection, schedule: Q01DX009 (ip), vehicle: saline with Tween-80) is 5 of 6.

With `CN[C@H]1CCc2cc(OC)c(OC)c(OC)c2-c2ccc(OC)c(=O)cc21`, for the setting “dose: 10.0 mg/kg/injection, schedule: Q01DX009 (ip), vehicle: saline”, the survivor count is recorded as 9 of 10.

Turning to `O=C(O)c1[nH]c(=O)[nH]c(=O)c1F`, for the setting “dose: 20.0 mg/kg/injection, schedule: Q01DX009 (ip), vehicle: saline”, the survivor count is recorded as 10 of 10.

In the case of `COc1cc(N(CCCl)CCCl)ccc1NC(=O)c1ccccc1`, the T/C under setting [6] was 145 % of control.

`CC[C@H]1CN2CCc3cc(OC)c(OC)cc3[C@@H]2C[C@@H]1C[C@H]1NCCc2cc(OC)c(OC)cc21`: the T/C (dose: 4.0 mg/kg/injection, schedule: Q03DX005 (ip), vehicle: saline) is 129 % of control and the T/C (dose: 8.0 mg/kg/injection, schedule: Q03DX005 (ip), vehicle: saline) is 141 % of control.

As for `CC(C)S(=O)(=O)/C(Cl)=C(/Cl)C(Cl)=C(Cl)Cl`, the survivor count is 5 of 6 under setting [7] and 0 of 6 under setting [8].

In the case of `COC(N)=O`, the survivor count (dose: 500.0 mg/kg/injection, schedule: Q01DX009 (ip), vehicle: saline) was 10 of 10.

In the case of `NC(Cc1ccc(N(CCCl)CCCl)cc1)C(=O)O` (stereo not drawn), the survivor count was 9 of 10 and 10 of 10 (dose: 16.0 mg/kg/injection, schedule: Q01DX009 (ip), vehicle: saline); 2 of 10 and 6 of 10 (dose: 32.0 mg/kg/injection, schedule: Q01DX009 (ip), vehicle: saline).

`O=c1[nH]c(=O)n(C2CC(O)C(CO)O2)cc1F` (stereo not drawn): the T/C was 132 % of control (dose: 40.0 mg/kg/injection, schedule: Q01DX009 (ip), vehicle: saline) and 133 % of control (dose: 80.0 mg/kg/injection, schedule: Q01DX009 (ip), vehicle: saline).

On to `CC[C@]1(O)C[C@H]2CN(CCc3c([nH]c4ccccc34)[C@@](C(=O)OC)(c3cc4c(cc3OC)N(C=O)[C@H]3[C@@](O)(C(=O)OC)[C@H](OC(C)=O)[C@]5(CC)C=CCN6CC[C@]43[C@@H]65)C2)C1`, for which the T/C reads like this: (dose: 0.06 mg/kg/injection, schedule: Q01DX009 (ip), vehicle: saline) 147 % of control; under setting [9], 147 % of control; under setting [10], 147 % of control. Besides, the survivor count was 10 of 10 under setting [10]; 7 of 10 and 10 of 10 under setting [11].

Take `O=NN(CCCl)C(=O)Nc1ccc(CCO)cc1`: the survivor count is listed as 6 of 6 under setting [12] and 6 of 6 under setting [6].

Turning to `COc1cc(/C=C2/c3cc(Cl)ccc3-c3c(Cl)cc(Cl)cc32)cc(OC)c1OC`, the survivor count under setting [13] is reported as 6 of 6, the survivor count under setting [14] is given as 6 of 6, the survivor count under setting [15] is 6 of 6 and the survivor count under setting [16] was 6 of 6.

In the case of `Cn1cc(NC(=O)c2cc(NC(=O)CN=C(N)N)cn2C)cc1C(=O)NCCC(=N)N`, the survivor count under setting [1] is reported as 5 of 10.

For `CC1([N+](=O)[O-])COP(=O)(NC2CCCC2)OC1` (stereo not drawn), under setting [5], the survivor count was 6 of 6.

In the case of `CCOC(N)=O`, under “dose: 1000.0 mg/kg/injection, schedule: Q01DX009 (ip), vehicle: saline”, the survivor count was 7 of 10.

Consider `O=NN(CCCl)C(=O)NCCCl`, for which the survivor count is listed as 10 of 10 (dose: 15.0 mg/kg/injection, schedule: Q01DX009 (ip), vehicle: saline) and 10 of 10 under setting [17].

Take `O=C1CN=C(c2ccc[nH]2)c2cc(Cl)ccc2N1`: the survivor count (dose: 400.0 mg/kg/injection, schedule: Q01DX009 (ip), vehicle: saline with Tween-80) was 6 of 6.

Turning to `CN(C)CCCN1c2ccc(O)cc2Sc2ccc(Cl)cc21`, the survivor count is given as 1 of 6 under setting [4] and 0 of 6 under setting [5].

Consider `CO[C@H](C(=O)[C@@H](O)[C@@H](C)O)[C@@H]1Cc2cc3cc(OC4CC(OC5CC(O)C(O)C(C)O5)C(O)C(C)O4)c(C)c(O)c3c(O)c2C(=O)[C@H]1OC1CC(OC2CC(OC3CC(C)(O)C(O)C(C)O3)C(O)C(C)O2)C(O)C(C)O1` (stereo partly drawn), for which the T/C by setting is: under setting [10], 133 % of control; under setting [11], 144 % of control. The survivor count is, setting by setting: under setting [18], 6 of 10; (dose: 2.0 mg/kg/injection, schedule: Q01DX009 (ip), vehicle: saline) 0 of 10 and 9 of 10.

With `N[C@@H](Cc1ccc(N(CCCl)CCCl)cc1)C(=O)O`, the survivor count (dose: 3.0 mg/kg/injection, schedule: Q01DX009 (ip), vehicle: saline) is 10 of 10 and the survivor count (dose: 6.0 mg/kg/injection, schedule: Q01DX009 (ip), vehicle: saline) is 10 of 10.

Take `Clc1ccc2c(c1)/C(=C/c1ccc3c(c1)OCO3)c1cc(Cl)cc(Cl)c1-2`: the survivor count by setting is: under setting [13], 6 of 6; under setting [14], 6 of 6; under setting [15], 6 of 6; under setting [16], 5 of 6.

Turning to `O=NN(CCF)C(=O)NC1CCS(=O)(=O)CC1`, the T/C runs as follows: (dose: 1.9 mg/kg/injection, schedule: Q01DX001 (ip), vehicle: saline) 134 % of control; (dose: 3.75 mg/kg/injection, schedule: Q01DX001 (ip), vehicle: saline) 146 % of control. Also, the survivor count (dose: 60.0 mg/kg/injection, schedule: Q01DX001 (ip), vehicle: saline) is given as 4 of 6.

As to `CC(CN1CC(=O)NC(=O)C1)N1CC(=O)NC(=O)C1` (stereo not drawn), the survivor count runs as follows: under setting [17], 6 of 6; (dose: 120.0 mg/kg/injection, schedule: Q01DX009 (ip), vehicle: saline) 6 of 6; (dose: 240.0 mg/kg/injection, schedule: Q01DX009 (ip), vehicle: saline) 6 of 6.

With `C[C@]12C=CC(=O)C=C1CC[C@@H]1[C@@H]2C(=O)C[C@@]2(C)[C@H]1CC[C@]2(O)C(=O)CO`, under setting [2], the survivor count is listed as 10 of 10.

Consider `COc1ccc2c3c(c4cc(OC)c(OC)cc4c2c1)C[C@H]1CCCCN1C3`, for which the T/C under setting [9] is 130 % of control. Besides, under setting [18], the survivor count is 10 of 10.

As to `N#CSCc1ccc(Cl)cc1Cl`, the survivor count reads like this: under setting [7], 4 of 6; under setting [8], 2 of 6.

Regarding `O=C(O)CCCc1ccc(N(CCCl)CCCl)cc1`, the T/C is 131 % of control under setting [12], 125 % of control under setting [6] and 128 % of control [8 of 10 alive] under setting [1]. Under setting [1], the survivor count is 10 of 10.

In the case of `NC(=O)Oc1cc(OC(N)=O)cc(N(CCCl)CCCl)c1`, the T/C was 130 % of control [9 of 10 alive] under setting [1] and 142 % of control [7 of 10 alive] under setting [3]. The survivor count under setting [4] is listed as 9 of 10.
